Measurements taken from article PMC12827327.
These are yes or no findings as the source states them, for the method shown.

Protein sequences, listed by entry. Tags and fused reporters are not part of them.
UniProt Q9UJC5: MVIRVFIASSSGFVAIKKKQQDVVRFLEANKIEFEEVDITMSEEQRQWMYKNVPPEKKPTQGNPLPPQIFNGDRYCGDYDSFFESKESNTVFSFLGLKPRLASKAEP
UniProt Q9H299: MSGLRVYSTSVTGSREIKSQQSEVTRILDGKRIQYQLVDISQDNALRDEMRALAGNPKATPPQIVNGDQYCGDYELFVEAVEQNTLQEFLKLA

What was measured:
human SH3BGRL-2 (human) = human SH3BGRL-2 (human) (UniProt Q9UJC5); assay: AUC; sedimentation velocity of each SH3BGRL isoform alone; 50,000 rpm, 20 °C; 25 mM HEPES pH 7.4, 50 mM NaCl, 0.5 mM TCEP; continuous c(s) model (SEDFIT); both purified
human SH3BGRL-3 (human) = human SH3BGRL-3 (human) (UniProt Q9H299); assay: as above

For “human SH3BGRL-2 (from UniProt Q9UJC5 1-107)”, the binding (human SH3BGRL-2 (human)) was “no binding (tested: 1 µM, 3 µM and 17 µM)”.
For “human SH3BGRL-3 (from UniProt Q9H299 1-93)”, the binding (human SH3BGRL-3 (human)) was “no binding”.
